Test results from the supplement of paper PMC10849652.
The list shows a part of the results. Residues, ends and D or L forms follow the SMILES beside them. *: point of attachment. Cbz = O=C(OCc1ccccc1)*

Protein sequences, listed by entry. Tags and fused reporters are not part of them. Lines headed by an entry give the natural chain unless they say otherwise; changes in a name come on top.
UniProt Q9UHN6: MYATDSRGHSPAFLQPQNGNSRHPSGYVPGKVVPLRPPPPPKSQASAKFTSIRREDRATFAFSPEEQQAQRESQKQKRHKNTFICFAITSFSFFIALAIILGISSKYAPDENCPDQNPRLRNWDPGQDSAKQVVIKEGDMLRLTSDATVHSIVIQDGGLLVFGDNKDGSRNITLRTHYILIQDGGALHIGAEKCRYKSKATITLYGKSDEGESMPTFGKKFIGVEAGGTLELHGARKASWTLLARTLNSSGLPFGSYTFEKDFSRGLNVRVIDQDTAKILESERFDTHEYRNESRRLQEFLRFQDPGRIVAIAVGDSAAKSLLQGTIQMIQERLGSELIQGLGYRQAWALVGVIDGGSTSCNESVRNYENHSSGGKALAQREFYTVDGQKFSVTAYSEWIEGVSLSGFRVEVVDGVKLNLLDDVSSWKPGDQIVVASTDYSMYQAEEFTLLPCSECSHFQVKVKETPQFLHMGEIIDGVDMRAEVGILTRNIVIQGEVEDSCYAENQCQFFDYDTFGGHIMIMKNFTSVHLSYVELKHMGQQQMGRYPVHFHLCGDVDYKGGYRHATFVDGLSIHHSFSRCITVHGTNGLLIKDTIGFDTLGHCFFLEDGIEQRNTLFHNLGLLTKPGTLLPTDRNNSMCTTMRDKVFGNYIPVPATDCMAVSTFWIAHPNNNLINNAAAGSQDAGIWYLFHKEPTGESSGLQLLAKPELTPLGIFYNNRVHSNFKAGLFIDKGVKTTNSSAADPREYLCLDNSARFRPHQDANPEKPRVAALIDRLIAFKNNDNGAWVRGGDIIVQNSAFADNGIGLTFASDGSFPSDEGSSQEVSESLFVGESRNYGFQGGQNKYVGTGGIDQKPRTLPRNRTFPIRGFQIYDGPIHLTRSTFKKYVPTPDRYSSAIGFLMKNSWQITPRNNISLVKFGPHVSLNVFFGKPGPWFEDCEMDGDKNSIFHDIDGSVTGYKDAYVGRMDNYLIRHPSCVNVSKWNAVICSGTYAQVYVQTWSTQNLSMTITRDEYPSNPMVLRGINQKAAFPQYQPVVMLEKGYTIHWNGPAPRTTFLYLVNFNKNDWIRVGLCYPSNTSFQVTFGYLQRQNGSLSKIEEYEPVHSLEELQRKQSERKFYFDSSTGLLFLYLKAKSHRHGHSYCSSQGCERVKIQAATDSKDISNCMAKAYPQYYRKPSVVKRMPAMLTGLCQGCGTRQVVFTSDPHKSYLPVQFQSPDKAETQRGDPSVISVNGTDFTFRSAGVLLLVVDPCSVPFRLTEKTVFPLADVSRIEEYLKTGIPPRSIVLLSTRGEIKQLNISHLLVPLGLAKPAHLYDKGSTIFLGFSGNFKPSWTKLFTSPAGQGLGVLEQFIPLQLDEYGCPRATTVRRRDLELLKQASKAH
UniProt Q96JB5: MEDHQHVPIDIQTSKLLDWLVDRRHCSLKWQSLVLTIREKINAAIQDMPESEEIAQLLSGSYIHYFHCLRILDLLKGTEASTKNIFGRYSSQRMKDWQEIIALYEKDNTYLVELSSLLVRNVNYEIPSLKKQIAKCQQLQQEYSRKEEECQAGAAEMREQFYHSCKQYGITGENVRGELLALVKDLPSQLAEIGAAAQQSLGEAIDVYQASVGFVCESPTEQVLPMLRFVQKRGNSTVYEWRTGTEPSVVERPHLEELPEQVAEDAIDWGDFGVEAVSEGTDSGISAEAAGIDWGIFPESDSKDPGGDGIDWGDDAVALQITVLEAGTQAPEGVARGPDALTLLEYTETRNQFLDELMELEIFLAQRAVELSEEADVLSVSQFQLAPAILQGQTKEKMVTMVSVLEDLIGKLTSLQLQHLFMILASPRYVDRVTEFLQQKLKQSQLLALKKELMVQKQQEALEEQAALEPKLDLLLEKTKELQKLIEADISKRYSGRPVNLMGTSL
UniProt Q00534, whole entry, looked up: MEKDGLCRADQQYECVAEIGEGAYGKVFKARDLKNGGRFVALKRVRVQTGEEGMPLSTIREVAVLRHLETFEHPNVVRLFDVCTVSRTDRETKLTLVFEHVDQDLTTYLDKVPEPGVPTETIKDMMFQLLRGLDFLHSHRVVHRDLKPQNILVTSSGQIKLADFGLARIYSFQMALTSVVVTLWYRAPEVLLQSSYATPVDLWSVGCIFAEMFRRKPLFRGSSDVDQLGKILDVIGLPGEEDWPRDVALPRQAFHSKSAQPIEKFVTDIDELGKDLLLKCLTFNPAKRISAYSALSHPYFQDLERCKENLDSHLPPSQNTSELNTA
UniProt Q9Y6K0: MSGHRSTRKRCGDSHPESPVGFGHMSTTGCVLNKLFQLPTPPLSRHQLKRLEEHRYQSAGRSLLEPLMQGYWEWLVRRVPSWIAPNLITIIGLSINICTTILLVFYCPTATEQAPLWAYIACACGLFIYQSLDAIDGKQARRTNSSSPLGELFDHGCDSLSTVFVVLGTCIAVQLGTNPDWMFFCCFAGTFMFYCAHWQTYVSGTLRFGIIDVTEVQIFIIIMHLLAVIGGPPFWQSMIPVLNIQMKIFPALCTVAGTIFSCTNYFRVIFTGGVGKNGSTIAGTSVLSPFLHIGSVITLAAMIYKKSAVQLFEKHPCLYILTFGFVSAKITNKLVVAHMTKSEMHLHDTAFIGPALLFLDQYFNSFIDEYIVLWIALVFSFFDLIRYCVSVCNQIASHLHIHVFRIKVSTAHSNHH
UniProt Q8N4Q1: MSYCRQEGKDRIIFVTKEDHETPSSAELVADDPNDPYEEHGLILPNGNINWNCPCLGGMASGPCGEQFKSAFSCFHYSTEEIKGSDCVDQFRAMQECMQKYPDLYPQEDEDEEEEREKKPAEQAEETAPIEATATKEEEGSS
UniProt Q9Y5P4: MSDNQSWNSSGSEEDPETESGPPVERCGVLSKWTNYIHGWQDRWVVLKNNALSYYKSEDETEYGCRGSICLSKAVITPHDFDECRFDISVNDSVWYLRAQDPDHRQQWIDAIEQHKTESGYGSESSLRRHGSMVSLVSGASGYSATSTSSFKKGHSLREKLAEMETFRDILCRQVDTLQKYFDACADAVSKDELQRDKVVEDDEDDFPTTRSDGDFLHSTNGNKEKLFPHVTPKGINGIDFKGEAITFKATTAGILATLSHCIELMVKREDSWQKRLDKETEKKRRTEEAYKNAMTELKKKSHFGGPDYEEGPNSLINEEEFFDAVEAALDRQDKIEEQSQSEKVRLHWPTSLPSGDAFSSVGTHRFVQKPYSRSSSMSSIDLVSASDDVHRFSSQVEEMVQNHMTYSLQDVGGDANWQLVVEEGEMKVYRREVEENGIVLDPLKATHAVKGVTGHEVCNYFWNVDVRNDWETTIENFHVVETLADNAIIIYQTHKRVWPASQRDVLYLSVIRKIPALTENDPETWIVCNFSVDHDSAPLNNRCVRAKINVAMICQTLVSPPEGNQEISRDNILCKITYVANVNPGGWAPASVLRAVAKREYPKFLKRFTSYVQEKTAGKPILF
UniProt Q9H444: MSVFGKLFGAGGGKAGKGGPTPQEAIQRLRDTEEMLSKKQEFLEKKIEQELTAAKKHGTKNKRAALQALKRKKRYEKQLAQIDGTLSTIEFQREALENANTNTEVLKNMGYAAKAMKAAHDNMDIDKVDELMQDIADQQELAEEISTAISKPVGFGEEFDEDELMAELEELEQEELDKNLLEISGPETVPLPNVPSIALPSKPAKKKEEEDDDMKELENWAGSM
UniProt Q9P2B7: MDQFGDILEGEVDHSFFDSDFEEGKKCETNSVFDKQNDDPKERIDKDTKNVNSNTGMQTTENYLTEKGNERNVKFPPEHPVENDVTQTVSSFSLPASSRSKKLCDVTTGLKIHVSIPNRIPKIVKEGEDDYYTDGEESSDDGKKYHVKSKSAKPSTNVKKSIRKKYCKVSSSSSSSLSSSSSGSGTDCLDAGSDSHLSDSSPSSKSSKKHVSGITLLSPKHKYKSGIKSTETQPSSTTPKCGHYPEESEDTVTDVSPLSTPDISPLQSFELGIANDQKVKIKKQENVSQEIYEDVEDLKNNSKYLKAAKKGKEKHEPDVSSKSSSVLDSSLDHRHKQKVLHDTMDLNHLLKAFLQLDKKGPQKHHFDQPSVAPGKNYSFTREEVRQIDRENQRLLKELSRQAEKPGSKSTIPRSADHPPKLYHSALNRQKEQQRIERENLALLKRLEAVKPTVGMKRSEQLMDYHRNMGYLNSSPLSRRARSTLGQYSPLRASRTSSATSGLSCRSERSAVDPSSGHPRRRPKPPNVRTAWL
UniProt Q8TAP6: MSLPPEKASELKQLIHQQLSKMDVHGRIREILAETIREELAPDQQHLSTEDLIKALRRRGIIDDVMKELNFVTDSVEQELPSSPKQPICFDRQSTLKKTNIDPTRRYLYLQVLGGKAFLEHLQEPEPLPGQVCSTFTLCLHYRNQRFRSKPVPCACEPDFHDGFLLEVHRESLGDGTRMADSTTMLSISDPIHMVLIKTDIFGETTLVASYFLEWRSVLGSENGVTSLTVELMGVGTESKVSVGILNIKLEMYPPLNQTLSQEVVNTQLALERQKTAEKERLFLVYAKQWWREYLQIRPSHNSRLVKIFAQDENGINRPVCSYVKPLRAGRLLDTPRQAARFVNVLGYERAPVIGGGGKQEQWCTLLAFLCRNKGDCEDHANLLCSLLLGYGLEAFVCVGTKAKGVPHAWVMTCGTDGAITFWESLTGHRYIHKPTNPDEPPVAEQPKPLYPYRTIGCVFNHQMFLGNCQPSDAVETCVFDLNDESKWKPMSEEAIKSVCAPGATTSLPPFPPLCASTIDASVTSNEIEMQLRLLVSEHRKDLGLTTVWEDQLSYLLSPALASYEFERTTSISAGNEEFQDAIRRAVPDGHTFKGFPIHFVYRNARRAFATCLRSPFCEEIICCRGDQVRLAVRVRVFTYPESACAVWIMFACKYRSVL
UniProt Q9Y6H1: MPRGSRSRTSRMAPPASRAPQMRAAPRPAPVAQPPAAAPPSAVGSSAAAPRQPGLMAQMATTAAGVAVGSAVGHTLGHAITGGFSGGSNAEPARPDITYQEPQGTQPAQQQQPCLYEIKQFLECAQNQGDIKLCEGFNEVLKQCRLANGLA
UniProt Q5SW79: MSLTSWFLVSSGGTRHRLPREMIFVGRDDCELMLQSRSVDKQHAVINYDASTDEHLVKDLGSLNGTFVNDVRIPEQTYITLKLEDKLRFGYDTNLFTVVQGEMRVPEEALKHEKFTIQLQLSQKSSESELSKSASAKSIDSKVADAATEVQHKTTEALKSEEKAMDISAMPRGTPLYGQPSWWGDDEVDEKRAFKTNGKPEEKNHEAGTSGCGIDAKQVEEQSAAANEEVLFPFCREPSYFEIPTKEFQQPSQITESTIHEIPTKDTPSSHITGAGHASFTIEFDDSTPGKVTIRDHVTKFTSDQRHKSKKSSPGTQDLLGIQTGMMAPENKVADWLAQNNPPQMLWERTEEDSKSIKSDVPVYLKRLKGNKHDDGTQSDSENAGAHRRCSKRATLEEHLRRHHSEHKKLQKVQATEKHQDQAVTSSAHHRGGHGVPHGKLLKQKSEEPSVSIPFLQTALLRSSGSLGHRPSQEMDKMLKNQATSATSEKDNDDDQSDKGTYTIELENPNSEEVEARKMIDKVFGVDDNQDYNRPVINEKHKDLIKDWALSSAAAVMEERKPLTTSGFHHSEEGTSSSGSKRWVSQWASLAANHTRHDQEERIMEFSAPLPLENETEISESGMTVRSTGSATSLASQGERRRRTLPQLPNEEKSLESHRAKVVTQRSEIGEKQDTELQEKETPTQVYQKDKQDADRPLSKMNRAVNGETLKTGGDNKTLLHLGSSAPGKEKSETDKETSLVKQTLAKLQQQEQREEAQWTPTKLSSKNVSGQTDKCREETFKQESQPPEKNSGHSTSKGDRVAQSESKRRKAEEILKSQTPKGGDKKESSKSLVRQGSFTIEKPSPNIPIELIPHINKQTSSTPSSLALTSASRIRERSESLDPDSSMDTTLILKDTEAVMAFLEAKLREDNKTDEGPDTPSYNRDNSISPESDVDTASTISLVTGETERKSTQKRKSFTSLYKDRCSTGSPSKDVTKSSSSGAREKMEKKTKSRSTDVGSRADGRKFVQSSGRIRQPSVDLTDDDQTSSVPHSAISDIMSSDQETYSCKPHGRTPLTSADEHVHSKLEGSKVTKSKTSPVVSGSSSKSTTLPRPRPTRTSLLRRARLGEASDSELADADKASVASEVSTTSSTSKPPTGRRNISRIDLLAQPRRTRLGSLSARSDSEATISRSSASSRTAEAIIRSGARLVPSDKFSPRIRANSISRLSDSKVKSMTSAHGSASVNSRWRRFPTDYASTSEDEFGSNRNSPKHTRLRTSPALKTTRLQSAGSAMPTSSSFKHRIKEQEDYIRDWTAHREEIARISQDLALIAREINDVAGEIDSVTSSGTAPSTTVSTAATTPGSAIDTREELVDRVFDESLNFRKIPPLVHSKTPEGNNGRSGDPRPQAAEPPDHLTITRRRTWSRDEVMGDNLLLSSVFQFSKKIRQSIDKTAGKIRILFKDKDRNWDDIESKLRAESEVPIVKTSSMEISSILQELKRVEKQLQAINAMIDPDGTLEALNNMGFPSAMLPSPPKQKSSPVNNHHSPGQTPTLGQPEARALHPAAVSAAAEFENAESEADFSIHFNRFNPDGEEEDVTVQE

How the values were obtained:
Assay in all cases: log2 fold change, soluble protein after heating vs DMSO (PISA); higher = thermal stabilisation; K562 cells, 10 uM, 30 min; active = over 0.2 and 3.5 SD of the protein, either way, in both replicates (recomputed)
[1] = compound: C#Cc1cccc(Nc2ncnc3cc(OCCOC)c(OCCOC)cc23)c1 [erlotinib]
In short: (§1)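 K562 cells at 2×10^6 cells/mL were treated for 30 min with 10 μM compound, and aliquots were heated for 3 min over 48°C-58°C before pooling. Extraction used PBS with 0.5% NP-40 at 4°C, and soluble protein was the supernatant after 21,000xg for 90 min, measured by TMTpro 16plex LC-MS/MS with channel sums equalised. Thermal stability values, relative to control samples and from duplicates, are log2 fold changes.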

[2] = compound: C/C(=N\NC(=O)C1=CC(=CC=C1)S(=O)(=O)N2CCOCC2)/C3=C(C=CC(=C3)Cl)O
In short: as §1

[3] = compound: C1=CC(=C(C=C1Cl)C2=NC3=NC=CN=C3C(=N2)NC4=CC=NC=C4)F
In short: as §1

[4] = compound: C1=CC(=CC=C1C2=NC3=C(N2)C=C(C=C3)C(=O)N)OC4=CC=C(C=C4)Cl
In short: as §1

[5] = compound: C1=CC2=C(C=CC(=C2)/C=C\3/C(=O)NC(=NCC4=CC=CS4)S3)N=C1
In short: as §1

[6] = compound: C1=CC2=NC=CN=C2C=C1/C=C/3\C(=O)NC(=O)S3
In short: as §1

[7] = compound: C1=CC=C(C=C1)C2=NC(=C(N2)C3=CC=NC=C3)C4=CC(=C(C=C4)Cl)O
In short: as §1

[8] = compound: C1=CC=C2C(=C1)C3=NNC4=CC=CC(=C43)C2=O
In short: as §1

[9] = compound: C1CCN(C1)C(=O)NC2=CC=CC(=C2)NC3=NC=C(C(=N3)NCCC4=CN=CN4)Br
In short: as §1

[10] = compound: C1CN(CCC1(CC2=CC=C(C=C2)Cl)N)C3=NC=NC4=C3C=CN4
In short: as §1

[11] = compound: C1COCCN1CCN2C3=CC=CC=C3N=C2NC(=O)C4=CC(=CC=C4)[N+](=O)[O-] [IRAK-1-4 Inhibitor I]
In short: as §1

[12] = compound: C=CC(=O)N1CCC[C@@H](n2nc(-c3ccc(Oc4ccccc4)cc3)c3c(N)ncnc32)C1 [ibrutinib]
In short: as §1

[13] = compound: CC(=O)c1cnc2ccc(-c3cc(Cl)c(O)c(Cl)c3)nc2c1N[C@H]1CC[C@H](CN(C)C)CC1
In short: as §1

[14] = compound: CC(C)(C)Cn1c(N)nc2ccc(-c3[nH]c(C(C)(C)C)nc3-c3ccc(F)cc3)nc21 [ralimetinib]
In short: as §1

[15] = compound: CC(C)(O)CC(=O)NCCn1ccc2ncnc(Nc3ccc(Oc4cccc(C(F)(F)F)c4)c(Cl)c3)c21
In short: as §1

[16] = compound: CC(C)C1=C2N=C(C=C(N2N=C1)NCC3=CC=CC=C3)NCCCCCCN
In short: as §1

[17] = compound: CC(C)C[C@@H](C=O)NC(=O)[C@H](CC(C)C)NC(=O)[C@H](CC(C)C)NC(=O)OCc1ccccc1
In short: as §1

[18] = compound: CC(C)N(C[C@H]1O[C@@H](n2cnc3c(N)ncnc32)[C@H](O)[C@@H]1O)[C@H]1C[C@@H](CCc2nc3cc(C(C)(C)C)ccc3[nH]2)C1 [pinometostat]
In short: as §1

[19] = compound: CC1=C(C2=C(C=C1)C(=O)C3=CC=CC=C3N2CCCN)C
In short: as §1

[20] = compound: CC1=C(C(CC(=O)N1)C2=CC=C(C=C2)C(F)(F)F)C(=O)NC3=C(C=C4C(=C3)C=NN4)F
In short: as §1

Measured: log2 fold change

CEMIP2 (UniProt Q9UHN6)
inactive: [1] 0.076 | [2] 0.018 | [3] -0.042 | [4] 0.001 | [5] 0.087 | [6] 0.029 | [7] -0.071 | [8] -0.066 | [9] 0.084 | [10] 0.041 | [11] 0 | [12] 0.096 | [13] -0.045 | [14] -0.023 | [15] -0.026 | [16] 0.122 | [17] 0.11 | [18] -0.035 | [19] 0.057

CES2 isoform 4 (UniProt O00748)
inactive: [1] -0.05 | [2] -0.16 | [3] -0.264 | [4] -0.008 | [5] -0.06 | [6] -0.011 | [7] 0.139 | [8] 0.083 | [9] 0.061 | [10] -0.087 | [11] -0.005 | [12] 0.077 | [13] 0.038 | [14] 0.006 | [15] 0.012 | [16] 0.045 | [17] 0.06 | [18] -0.02 | [19] 0

CDK5RAP3 isoform 4 (UniProt Q96JB5)
inactive: [1] 0.089 | [2] 0.027 | [3] 0.042 | [4] -0.017 | [5] 0.01 | [6] 0.023 | [7] 0.033 | [8] 0.041 | [9] -0.003 | [10] -0.068 | [11] -0.051 | [12] -0.068 | [13] -0.005 | [14] -0.015 | [15] -0.062 | [16] -0.056 | [17] -0.002 | [18] 0.017 | [19] 0.009

CDK13 (UniProt Q14004)
inactive: [1] -0.064 | [2] 0.039 | [3] -0.147 | [4] 0.028 | [5] -0.126 | [6] -0.014 | [7] -0.012 | [8] -0.212 | [9] -0.006 | [10] -0.129 | [11] -0.05 | [12] 0.024 | [14] 0.199 | [15] 0.031 | [16] -0.171 | [17] 0.081 | [18] 0.043 | [19] -0.017
active: [13] -0.52

CDK6 (UniProt Q00534)
inactive: [1] -0.035 | [2] 0 | [3] -0.053 | [4] 0.02 | [5] 0.027 | [6] 0.018 | [7] -0.031 | [8] 0.04 | [9] 0.017 | [10] -0.034 | [11] -0.014 | [12] 0.031 | [13] 0.107 | [14] 0.009 | [15] -0.009 | [16] -0.026 | [17] 0.086 | [18] 0.062 | [19] -0.019

CDK11B (UniProt P21127)
active: [13] 2.34 | [19] -0.366
inactive: [1] 0.044 | [2] 0.006 | [3] -0.139 | [4] 0.063 | [5] 0.035 | [6] -0.033 | [7] -0.042 | [8] -0.049 | [9] -0.033 | [10] -0.058 | [11] -0.151 | [12] -0.026 | [14] 0.04 | [15] -0.006 | [16] -0.116 | [17] 0.076 | [18] -0.11

CHMP4C (UniProt Q96CF2)
active: [3] 0.476
inactive: [1] 0.036 | [2] 0.06 | [4] -0.025 | [5] 0.054 | [6] 0.134 | [7] -0.064 | [8] -0.043 | [9] 0.058 | [10] 0.034 | [11] 0.097 | [12] -0.022 | [13] -0.028 | [14] -0.087 | [15] -0.018 | [16] -0.099 | [17] 0.039 | [18] -0.095 | [19] -0.019

2 entries drawn at random from those above, as already listed:
CDK5RAP3 isoform 4 (UniProt Q96JB5)
inactive: [1] 0.089 | [2] 0.027 | [3] 0.042 | [4] -0.017 | [5] 0.01 | [6] 0.023 | [7] 0.033 | [8] 0.041 | [9] -0.003 | [10] -0.068 | [11] -0.051 | [12] -0.068 | [13] -0.005 | [14] -0.015 | [15] -0.062 | [16] -0.056 | [17] -0.002 | [18] 0.017 | [19] 0.009

CDK6 (UniProt Q00534)
inactive: [1] -0.035 | [2] 0 | [3] -0.053 | [4] 0.02 | [5] 0.027 | [6] 0.018 | [7] -0.031 | [8] 0.04 | [9] 0.017 | [10] -0.034 | [11] -0.014 | [12] 0.031 | [13] 0.107 | [14] 0.009 | [15] -0.009 | [16] -0.026 | [17] 0.086 | [18] 0.062 | [19] -0.019

Continuation:

CEPT1 (UniProt Q9Y6K0)
active: [16] -0.466
inactive: [1] 0.099 | [2] 0.034 | [3] 0.016 | [4] 0.107 | [5] 0.037 | [6] 0.047 | [7] 0.011 | [8] 0.071 | [9] 0.007 | [10] -0.074 | [11] 0.035 | [12] -0.014 | [13] 0.072 | [14] -0.026 | [15] 0.073 | [17] -0.118 | [18] -0.016 | [19] 0.118

CELF2 isoform 3 (UniProt O95319)
active: [19] 0.418
inactive: [1] -0.042 | [2] -0.044 | [3] 0 | [4] 0.045 | [5] 0.004 | [6] 0.047 | [7] 0.021 | [8] 0.064 | [9] -0.022 | [10] 0.086 | [11] 0.009 | [12] -0.022 | [13] 0.009 | [14] 0.055 | [15] -0.003 | [16] -0.015 | [17] 0.249 | [18] -0.047

CHCHD4 isoform 2 (UniProt Q8N4Q1)
inactive: [1] -0.071 | [2] 0.102 | [3] -0.045 | [4] -0.036 | [5] -0.067 | [6] 0.012 | [7] -0.022 | [8] 0.053 | [9] -0.678 | [10] 0.177 | [11] 0.056 | [12] 0.003 | [13] 0.096 | [14] -0.003 | [15] 0.002 | [16] 0.075 | [17] 0.03 | [18] -0.024 | [19] -0.18

CERT isoform 3 (UniProt Q9Y5P4)
active: [13] -0.382
inactive: [1] 0.05 | [2] 0.083 | [3] 0.018 | [4] -0.009 | [5] 0.039 | [6] 0.005 | [7] 0.044 | [8] 0 | [9] -0.054 | [10] -0.007 | [11] -0.052 | [12] 0.017 | [14] 0.038 | [15] 0.166 | [16] 0.103 | [17] 0.005 | [18] 0.026 | [19] -0.033

CHMP4B (UniProt Q9H444)
inactive: [1] 0.018 | [2] -0.006 | [3] 0.024 | [4] 0.013 | [5] -0.014 | [6] 0.057 | [7] 0.043 | [8] -0.001 | [9] 0.083 | [10] 0.035 | [11] 0.068 | [12] -0.024 | [13] 0.015 | [14] 0.039 | [15] 0.015 | [16] 0.014 | [17] -0.003 | [18] -0.032 | [19] -0.011

CDC42BPB (UniProt Q9Y5S2)
active: [13] -0.637
inactive: [1] -0.005 | [2] 0.221 | [3] -0.071 | [4] 0.069 | [5] -0.047 | [6] 0.027 | [7] -0.024 | [8] 0.04 | [9] 0.017 | [10] -0.221 | [11] -0.022 | [12] -0.167 | [14] 0.124 | [15] 0.023 | [16] -0.063 | [17] -0.009 | [18] 0.267 | [19] 0.023

CFAP97 (UniProt Q9P2B7)
inactive: [1] -0.088 | [2] 0.027 | [3] -0.183 | [4] -0.012 | [5] -0.002 | [6] -0.363 | [7] 0.187 | [8] 0.017 | [9] 0.056 | [10] 0.046 | [11] 0.033 | [12] 0.046 | [13] -0.057 | [14] 0.256 | [15] 0.057 | [16] -0.08 | [17] 0.104 | [18] 0.022 | [19] -0.109

CEP76 (UniProt Q8TAP6)
inactive: [1] -0.016 | [2] -0.005 | [3] -0.013 | [4] 0.021 | [5] 0.087 | [6] -0.005 | [7] -0.012 | [8] -0.011 | [9] 0.043 | [10] 0.116 | [11] -0.003 | [12] 0.025 | [13] -0.046 | [14] -0.027 | [15] 0.06 | [16] 0.019 | [17] 0.022 | [18] -0.027 | [20] 0.052 | [19] -0.024

CHCHD2 (UniProt Q9Y6H1)
inactive: [1] -0.083 | [2] 0.107 | [3] 0.092 | [4] 0.049 | [5] 0.028 | [6] 0.032 | [7] -0.028 | [8] 0.098 | [9] 0.003 | [10] -0.001 | [11] 0.009 | [12] 0.067 | [13] 0.022 | [14] -0.035 | [15] -0.017 | [16] 0.095 | [17] -0.071 | [18] -0.068 | [19] -0.004

CEP170 (UniProt Q5SW79)
inactive: [1] 0.007 | [2] -0.015 | [3] -0.192 | [4] 0.027 | [5] 0 | [6] -0.257 | [7] -0.028 | [8] -0.111 | [9] 0.055 | [10] 0.006 | [11] -0.063 | [12] 0.038 | [13] -0.274 | [14] 0.108 | [15] 0.017 | [16] -0.253 | [17] 0.015 | [18] 0.237 | [20] 0.013 | [19] -0.038
